Data from PMC4383044, “Molecular insights into RNA and DNA helicase evolution from the determinants of specificity for a DEAD-box RNA helicase” (eLife, 2014).
For part of these data: No signal at the amounts used counts as a negative. Protein sequences can lack the tags named with them. For part of these data: For at least one entry, the source does not settle the construct or the ends of the probe. For part of these data: A weaker result is weaker than the reference pair of the same experiment.

Columns and labels:
[1] = biological target: T1, Mss116 helicase core D1D2 (UniProt P15424); assay: SEC; details: 5 mM UDP-BeFx, A260/A280 1.0, open, complex not maintained; 20 mM Tris-HCl pH 7.5, 100 mM KCl, 10% glycerol, 1 mM DTT, 5 mM MgCl2, 0.1 mg/ml BSA, 22 C, >=1 h; SEC with 200 mM KCl, no BSA; recombinant protein; residues 88-597
T1 sequence (looked up): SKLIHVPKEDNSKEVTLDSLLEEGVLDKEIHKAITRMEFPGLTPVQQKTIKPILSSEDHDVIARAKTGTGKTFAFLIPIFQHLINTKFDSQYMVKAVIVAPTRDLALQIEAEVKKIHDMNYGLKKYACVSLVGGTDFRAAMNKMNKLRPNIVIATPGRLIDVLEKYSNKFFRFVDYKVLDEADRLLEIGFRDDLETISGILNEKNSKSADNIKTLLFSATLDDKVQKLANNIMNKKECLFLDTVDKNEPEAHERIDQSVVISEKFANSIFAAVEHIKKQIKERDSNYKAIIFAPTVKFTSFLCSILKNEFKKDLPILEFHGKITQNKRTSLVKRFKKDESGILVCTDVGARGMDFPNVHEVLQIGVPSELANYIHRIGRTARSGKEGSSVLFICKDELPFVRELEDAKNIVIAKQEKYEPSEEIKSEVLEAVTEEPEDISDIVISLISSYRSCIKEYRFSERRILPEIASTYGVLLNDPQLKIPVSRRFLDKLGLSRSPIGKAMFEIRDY

[2] = biological target: T2, Mss116 helicase core D1D2, MBP-tagged (UniProt P15424); assay: fluorescence anisotropy; details: no stable closed state, 20 mM Tris-HCl pH 7.5, 100 mM KCl, 10% glycerol, 1 mM DTT, 5 mM MgCl2, 0.1 mg/ml BSA, 22 C, >=1 h, SEC with 200 mM KCl, recombinant protein, residues 88-597, protein details: N-terminal MBP (MalE), label: 5' FAM
T2 sequence (looked up): T1 sequence (looked up)

| Sequence | binding result [1] | binding result ([2]; 10 mM ADP + Pi 0-100 mM) | binding result ([2]; ADP 0-10 mM) |
| --- | --- | --- | --- |
| AAAAAAAAAA [A10-RNA] | binds more weakly | – | – |
| AAAAAAAAAA [A10-RNA, 5' FAM] | – | no binding | no binding |
